Measured values taken from paper doi:10.1101/771857.
Results are given in words; binding and its absence hold for the method and conditions named. In cells and extracts the contact can be indirect. Binding calls can cover weak binding; strength is not graded here.

Molecular target: T1, Vti1b-mCitrine (human) (UniProt Q9UEU0)
T1 sequence: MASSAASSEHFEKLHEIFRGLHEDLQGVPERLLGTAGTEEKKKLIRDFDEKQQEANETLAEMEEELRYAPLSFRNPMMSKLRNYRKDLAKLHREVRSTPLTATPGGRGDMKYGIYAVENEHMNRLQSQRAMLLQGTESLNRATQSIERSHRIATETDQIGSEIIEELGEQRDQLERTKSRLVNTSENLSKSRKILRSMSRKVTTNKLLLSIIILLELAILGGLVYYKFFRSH
Test: co-IP

With His6-Ii p33 wt the binding was “binds”.

With His6-Ii Δ27 (domain or fragment) the binding was “binds”.
